# Measured values from the supplement of paper PMC10032668.
# Sequences of proteins named here, by UniProt entry; tags and fusion partners are left off.
# ACTN4, O43707, UniProt O43707, whole entry: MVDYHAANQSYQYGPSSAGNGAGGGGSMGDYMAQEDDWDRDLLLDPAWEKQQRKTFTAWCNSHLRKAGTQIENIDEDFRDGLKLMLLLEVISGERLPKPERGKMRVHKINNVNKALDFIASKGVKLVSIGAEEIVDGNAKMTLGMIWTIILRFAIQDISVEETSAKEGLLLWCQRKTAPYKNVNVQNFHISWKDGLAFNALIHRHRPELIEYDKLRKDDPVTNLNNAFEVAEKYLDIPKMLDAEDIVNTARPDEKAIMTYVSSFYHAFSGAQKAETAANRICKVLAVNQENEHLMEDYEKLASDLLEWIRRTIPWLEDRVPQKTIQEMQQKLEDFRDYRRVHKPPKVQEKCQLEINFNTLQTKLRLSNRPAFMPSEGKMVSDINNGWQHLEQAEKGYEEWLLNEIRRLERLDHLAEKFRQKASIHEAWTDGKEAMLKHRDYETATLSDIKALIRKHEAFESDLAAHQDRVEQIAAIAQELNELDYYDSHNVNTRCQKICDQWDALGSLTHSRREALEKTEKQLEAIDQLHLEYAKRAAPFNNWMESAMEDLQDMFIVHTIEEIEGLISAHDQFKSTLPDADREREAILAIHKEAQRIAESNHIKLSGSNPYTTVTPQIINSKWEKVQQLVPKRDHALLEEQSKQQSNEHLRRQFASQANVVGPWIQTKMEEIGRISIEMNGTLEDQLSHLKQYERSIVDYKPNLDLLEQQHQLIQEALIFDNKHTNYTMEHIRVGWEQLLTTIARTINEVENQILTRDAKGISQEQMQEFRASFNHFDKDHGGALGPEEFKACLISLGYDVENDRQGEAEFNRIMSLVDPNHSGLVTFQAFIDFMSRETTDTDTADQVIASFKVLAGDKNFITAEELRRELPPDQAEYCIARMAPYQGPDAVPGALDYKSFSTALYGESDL
# ATP6V0D1, P61421, UniProt P61421, whole entry: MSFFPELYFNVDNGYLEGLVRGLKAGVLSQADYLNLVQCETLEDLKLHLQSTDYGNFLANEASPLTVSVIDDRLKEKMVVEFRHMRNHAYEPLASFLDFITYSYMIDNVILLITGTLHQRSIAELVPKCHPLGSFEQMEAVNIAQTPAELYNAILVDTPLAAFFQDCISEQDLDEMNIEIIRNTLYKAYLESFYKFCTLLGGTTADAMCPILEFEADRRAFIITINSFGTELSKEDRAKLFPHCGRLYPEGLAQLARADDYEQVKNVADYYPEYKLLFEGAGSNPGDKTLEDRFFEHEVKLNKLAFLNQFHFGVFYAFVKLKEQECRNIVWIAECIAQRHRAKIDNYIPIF
# CDK9, P50750, UniProt P50750, whole entry: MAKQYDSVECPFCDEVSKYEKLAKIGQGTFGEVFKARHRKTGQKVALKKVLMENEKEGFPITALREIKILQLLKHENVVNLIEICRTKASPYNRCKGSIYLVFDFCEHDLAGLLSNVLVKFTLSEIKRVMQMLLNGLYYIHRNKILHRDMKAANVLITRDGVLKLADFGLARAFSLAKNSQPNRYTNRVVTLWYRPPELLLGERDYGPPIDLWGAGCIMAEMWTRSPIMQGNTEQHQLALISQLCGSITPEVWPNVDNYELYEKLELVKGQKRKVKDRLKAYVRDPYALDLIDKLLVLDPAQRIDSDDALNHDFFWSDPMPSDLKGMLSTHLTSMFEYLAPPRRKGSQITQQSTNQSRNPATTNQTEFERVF
# MYL6, P60660, UniProt P60660, whole entry: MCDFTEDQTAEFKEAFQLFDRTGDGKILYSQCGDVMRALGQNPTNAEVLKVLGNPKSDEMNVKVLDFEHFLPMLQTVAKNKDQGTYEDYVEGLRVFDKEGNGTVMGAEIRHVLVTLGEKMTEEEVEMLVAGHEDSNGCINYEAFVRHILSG
# MTPN, P58546, UniProt P58546, whole entry: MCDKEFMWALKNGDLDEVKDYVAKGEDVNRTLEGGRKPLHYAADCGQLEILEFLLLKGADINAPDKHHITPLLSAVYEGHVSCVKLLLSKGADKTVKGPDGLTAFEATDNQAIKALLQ
# The list shows a part of the results. The list holds hits alone, and they repeat only in part.
# Columns and labels:
# Assay in all cases: PRISMA enrichment of interactor (LFQ) in peptide spot vs all other peptide spots (log2 fold change); higher = stronger / more specific binding of the interactor to the peptide
# ACTN4, O43707 = molecular target: ACTN4, O43707
# Method: (§1)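 PRISMA: 15-aa overlapping tiles (offset 8 aa) of 60 microproteins, plus SOS1/GLUT1 control peptides, were spot-synthesized on cellulose membranes in triplicate. Membranes were incubated with benzonase-treated HEK293T lysate, and bound proteins were identified by LC-MS/MS with LFQ. Enrichment is the log2 fold change of each protein in one spot versus all other spots. Only interactors passing the significance cutoff are listed.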
# ATP6V0D1, P61421 = molecular target: ATP6V0D1, P61421
# Method: as §1
# CDK9, P50750 = molecular target: CDK9, P50750
# Method: as §1
# CGN, Q9P2M7 = molecular target: CGN, Q9P2M7
# Method: as §1
# GPAT4, Q86UL3 = molecular target: GPAT4, Q86UL3
# Method: as §1
# MYL6, P60660 = molecular target: MYL6, P60660
# Method: as §1
# PEX11B, O96011 = molecular target: PEX11B, O96011
# Method: as §1
# PRRC2C, Q9Y520 = molecular target: PRRC2C, Q9Y520
# Method: as §1
# RER1, O15258 = molecular target: RER1, O15258
# Method: as §1
# STMN3, Q9NZ72 = molecular target: STMN3, Q9NZ72
# Method: as §1
# UBAC2, Q8NBM4 = molecular target: UBAC2, Q8NBM4
# Method: as §1
# UFL1, O94874 = molecular target: UFL1, O94874
# Method: as §1
# UTP3, Q9NQZ2 = molecular target: UTP3, Q9NQZ2
# Method: as §1
# UBR5, O95071 = molecular target: UBR5, O95071
# Method: as §1
# WDR6, Q9NNW5 = molecular target: WDR6, Q9NNW5
# Method: as §1
# ZCCHC10, Q8TBK6 = molecular target: ZCCHC10, Q8TBK6
# Method: as §1
# ASPM, Q8IZT6 = molecular target: ASPM, Q8IZT6
# Method: as §1
# ATP5MF, P56134 = molecular target: ATP5MF, P56134
# Method: as §1
# CDK8, P49336 = molecular target: CDK8, P49336
# Method: as §1
# CHMP4B, Q9H444 = molecular target: CHMP4B, Q9H444
# Method: as §1
# GMNN, O75496 = molecular target: GMNN, O75496
# Method: as §1
# MTPN, P58546 = molecular target: MTPN, P58546
# Method: as §1
# PDP1, Q9P0J1 = molecular target: PDP1, Q9P0J1
# Method: as §1
# RPN2, P04844 = molecular target: RPN2, P04844
# Method: as §1
# SCYL1, Q96KG9 = molecular target: SCYL1, Q96KG9
# Method: as §1
# SHMT1, P34896 = molecular target: SHMT1, P34896
# Method: as §1
# SLU7, O95391 = molecular target: SLU7, O95391
# Method: as §1
binder,measurement,setting,value
ECAKEHTDTEQTGHL [RP11-620J15.3],PRISMA enrichment of interactor (log2),"ACTN4, O43707",4.72
same,PRISMA enrichment of interactor (log2),"ATP6V0D1, P61421",5.65
same,PRISMA enrichment of interactor (log2),"CDK9, P50750",8.71
same,PRISMA enrichment of interactor (log2),"CGN, Q9P2M7",5.63
same,PRISMA enrichment of interactor (log2),"GPAT4, Q86UL3",6.44
same,PRISMA enrichment of interactor (log2),"MYL6, P60660",6.14
same,PRISMA enrichment of interactor (log2),"PEX11B, O96011",4.27
same,PRISMA enrichment of interactor (log2),"PRRC2C, Q9Y520",5.96
same,PRISMA enrichment of interactor (log2),"RER1, O15258",7.9
same,PRISMA enrichment of interactor (log2),"STMN3, Q9NZ72",4.78
same,PRISMA enrichment of interactor (log2),"UBAC2, Q8NBM4",5.09
same,PRISMA enrichment of interactor (log2),"UFL1, O94874",6.98
same,PRISMA enrichment of interactor (log2),"UTP3, Q9NQZ2",4.53
SLGLSNLQKSQIQGK [MKKS],PRISMA enrichment of interactor (log2),"UBR5, O95071",3.93
same,PRISMA enrichment of interactor (log2),"WDR6, Q9NNW5",4.99
same,PRISMA enrichment of interactor (log2),"ZCCHC10, Q8TBK6",4.86
NNAMRFAHSWVTLVI [LINC01128],PRISMA enrichment of interactor (log2),"ACTN4, O43707",4.9
same,PRISMA enrichment of interactor (log2),"ASPM, Q8IZT6",4.14
same,PRISMA enrichment of interactor (log2),"ATP5MF, P56134",5.66
same,PRISMA enrichment of interactor (log2),"CDK8, P49336",4.5
same,PRISMA enrichment of interactor (log2),"CHMP4B, Q9H444",4.84
same,PRISMA enrichment of interactor (log2),"GMNN, O75496",3.87
same,PRISMA enrichment of interactor (log2),"MTPN, P58546",5.63
same,PRISMA enrichment of interactor (log2),"PDP1, Q9P0J1",4.18
same,PRISMA enrichment of interactor (log2),"RPN2, P04844",4.93
same,PRISMA enrichment of interactor (log2),"SCYL1, Q96KG9",5.56
same,PRISMA enrichment of interactor (log2),"SHMT1, P34896",5.77
same,PRISMA enrichment of interactor (log2),"SLU7, O95391",3.91

# 2 entries from above, with bars between the fields.
binder | measurement | setting | value
ECAKEHTDTEQTGHL [RP11-620J15.3] | PRISMA enrichment of interactor (log2) | ATP6V0D1, P61421 | 5.65
NNAMRFAHSWVTLVI [LINC01128] | PRISMA enrichment of interactor (log2) | SLU7, O95391 | 3.91
